These are yes or no findings as the source states them, for the method shown. In cells and extracts the contact can be indirect. Binding calls can cover weak binding; strength is not graded here. Values belong to the molecule of their own block, whether it stands above or below them.
Key:
[1] = target: T1, semaphorin 7A (murine, Sema7a) (mouse (endogenous in murine blood and heart tissue)) (UniProt Q9QUR8); assay: co-IP; Pierce Co-IP Kit; anti-Sema7a (sc374432) or anti-GPIb (p0p4) antibody immobilised on Amino Link Plus Coupling Resin; lysates of murine blood (60-min ischemia, 1-min reperfusion) or heart AAR (60-min ischemia, 15-min reperfusion) in IP-Lysis/wash buffer; rat or mouse IgG as control; immunoblot for GPIb (p0p5) or Sema7a (sc135263)
T1 sequence: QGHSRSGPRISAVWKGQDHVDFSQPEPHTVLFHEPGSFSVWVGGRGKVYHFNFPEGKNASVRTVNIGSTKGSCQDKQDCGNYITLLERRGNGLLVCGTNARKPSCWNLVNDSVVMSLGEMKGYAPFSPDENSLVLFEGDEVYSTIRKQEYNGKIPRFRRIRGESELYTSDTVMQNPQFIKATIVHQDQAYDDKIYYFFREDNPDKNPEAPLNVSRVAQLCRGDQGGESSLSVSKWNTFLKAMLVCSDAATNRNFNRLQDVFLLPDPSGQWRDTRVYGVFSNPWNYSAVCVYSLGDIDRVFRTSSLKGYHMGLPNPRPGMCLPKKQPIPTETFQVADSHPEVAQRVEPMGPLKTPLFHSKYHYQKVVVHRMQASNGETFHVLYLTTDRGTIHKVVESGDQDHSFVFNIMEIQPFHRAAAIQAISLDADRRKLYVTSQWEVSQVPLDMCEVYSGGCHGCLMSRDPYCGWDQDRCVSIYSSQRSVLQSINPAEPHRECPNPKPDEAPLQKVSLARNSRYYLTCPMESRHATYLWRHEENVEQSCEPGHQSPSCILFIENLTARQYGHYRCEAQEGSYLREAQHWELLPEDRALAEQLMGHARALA

[2] = target: platelet glycoprotein Ib (GPIb) (mouse (endogenous in murine blood and heart tissue)); assay: as above

binding [1]: binds
Molecule: platelet glycoprotein Ib (GPIb) (receptor)

binding [2]: binds
B1: semaphorin 7A (murine, Sema7a) (protein, UniProt Q9QUR8 45-646)
chain: T1 sequence

From publication PMC7066172
